No constants are given. Whether binding was seen depends on the method and setting. In cells and extracts the contact can be indirect. Some binding calls cover weakened binding; strength is not graded here.
Target: T1, SLC26A3 (solute carrier family 26 member 3), wild type (human (endogenous in Caco-2)) (UniProt P40879)
T1 sequence: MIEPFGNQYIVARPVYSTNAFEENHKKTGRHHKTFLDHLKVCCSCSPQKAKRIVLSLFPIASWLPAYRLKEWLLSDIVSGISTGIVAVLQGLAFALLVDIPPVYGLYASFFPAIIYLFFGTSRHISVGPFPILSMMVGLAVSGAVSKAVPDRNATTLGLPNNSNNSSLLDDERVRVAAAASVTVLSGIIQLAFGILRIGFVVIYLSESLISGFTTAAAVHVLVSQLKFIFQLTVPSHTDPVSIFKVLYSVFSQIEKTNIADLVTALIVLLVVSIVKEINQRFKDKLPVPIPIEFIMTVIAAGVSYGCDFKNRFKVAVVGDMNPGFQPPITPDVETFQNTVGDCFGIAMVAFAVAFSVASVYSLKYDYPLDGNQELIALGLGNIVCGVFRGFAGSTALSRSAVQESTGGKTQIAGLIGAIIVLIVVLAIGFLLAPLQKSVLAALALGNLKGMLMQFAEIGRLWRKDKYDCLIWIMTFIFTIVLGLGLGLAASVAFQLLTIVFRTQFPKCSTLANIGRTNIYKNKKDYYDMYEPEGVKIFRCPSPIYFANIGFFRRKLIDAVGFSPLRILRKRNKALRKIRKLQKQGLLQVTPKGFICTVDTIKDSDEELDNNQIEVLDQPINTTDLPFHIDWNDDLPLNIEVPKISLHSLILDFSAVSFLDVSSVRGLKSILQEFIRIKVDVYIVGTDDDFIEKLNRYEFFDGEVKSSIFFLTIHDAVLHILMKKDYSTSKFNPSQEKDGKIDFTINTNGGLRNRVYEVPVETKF
Test: co-IP; endogenous; Caco-2 WT, P131R and RWT lysates (non-denaturing lysis buffer, 500 µg protein) with 2 µg SLC26A3 antibody overnight at 4 °C, protein A/G Sepharose beads, immunoblot; IgG as negative control

Sequences of proteins named here, by UniProt entry; tags and fusion partners are left off.
UniProt P13569: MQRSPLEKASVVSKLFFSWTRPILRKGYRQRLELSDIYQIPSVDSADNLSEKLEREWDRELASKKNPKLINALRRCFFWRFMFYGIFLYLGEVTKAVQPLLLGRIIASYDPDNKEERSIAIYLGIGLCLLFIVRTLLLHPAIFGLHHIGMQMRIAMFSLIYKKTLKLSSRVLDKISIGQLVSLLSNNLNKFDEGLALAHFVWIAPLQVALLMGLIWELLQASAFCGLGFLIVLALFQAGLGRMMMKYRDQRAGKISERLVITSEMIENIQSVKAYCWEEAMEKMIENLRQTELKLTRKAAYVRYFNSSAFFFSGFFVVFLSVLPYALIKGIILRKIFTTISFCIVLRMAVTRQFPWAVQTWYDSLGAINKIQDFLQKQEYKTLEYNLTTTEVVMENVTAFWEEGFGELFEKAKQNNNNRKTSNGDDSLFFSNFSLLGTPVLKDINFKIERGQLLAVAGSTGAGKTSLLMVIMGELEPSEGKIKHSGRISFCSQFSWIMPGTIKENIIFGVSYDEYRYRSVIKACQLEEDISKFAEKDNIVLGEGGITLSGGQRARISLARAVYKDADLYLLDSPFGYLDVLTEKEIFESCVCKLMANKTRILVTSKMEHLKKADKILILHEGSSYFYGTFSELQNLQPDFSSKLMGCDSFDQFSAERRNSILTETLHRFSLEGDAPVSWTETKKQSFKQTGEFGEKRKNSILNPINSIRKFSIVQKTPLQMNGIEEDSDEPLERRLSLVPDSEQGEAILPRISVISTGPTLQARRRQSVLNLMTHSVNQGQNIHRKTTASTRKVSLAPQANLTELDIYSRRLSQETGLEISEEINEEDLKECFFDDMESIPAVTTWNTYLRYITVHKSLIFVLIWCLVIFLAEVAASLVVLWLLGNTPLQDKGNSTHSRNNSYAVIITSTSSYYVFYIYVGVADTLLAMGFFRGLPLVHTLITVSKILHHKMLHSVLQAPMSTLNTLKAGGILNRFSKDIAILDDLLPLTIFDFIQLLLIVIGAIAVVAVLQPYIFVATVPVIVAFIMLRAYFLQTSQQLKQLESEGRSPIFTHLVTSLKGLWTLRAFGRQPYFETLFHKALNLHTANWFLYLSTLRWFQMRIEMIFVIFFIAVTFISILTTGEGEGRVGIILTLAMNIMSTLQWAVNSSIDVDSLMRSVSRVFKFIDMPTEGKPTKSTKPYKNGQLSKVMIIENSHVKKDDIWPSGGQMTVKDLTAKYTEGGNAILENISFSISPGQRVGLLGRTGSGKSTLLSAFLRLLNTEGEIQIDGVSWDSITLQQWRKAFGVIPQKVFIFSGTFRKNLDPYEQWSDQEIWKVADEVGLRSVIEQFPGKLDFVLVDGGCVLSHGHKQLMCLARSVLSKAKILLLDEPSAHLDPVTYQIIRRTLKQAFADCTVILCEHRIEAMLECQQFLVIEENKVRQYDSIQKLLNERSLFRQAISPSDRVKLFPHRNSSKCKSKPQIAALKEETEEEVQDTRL
UniProt Q07157: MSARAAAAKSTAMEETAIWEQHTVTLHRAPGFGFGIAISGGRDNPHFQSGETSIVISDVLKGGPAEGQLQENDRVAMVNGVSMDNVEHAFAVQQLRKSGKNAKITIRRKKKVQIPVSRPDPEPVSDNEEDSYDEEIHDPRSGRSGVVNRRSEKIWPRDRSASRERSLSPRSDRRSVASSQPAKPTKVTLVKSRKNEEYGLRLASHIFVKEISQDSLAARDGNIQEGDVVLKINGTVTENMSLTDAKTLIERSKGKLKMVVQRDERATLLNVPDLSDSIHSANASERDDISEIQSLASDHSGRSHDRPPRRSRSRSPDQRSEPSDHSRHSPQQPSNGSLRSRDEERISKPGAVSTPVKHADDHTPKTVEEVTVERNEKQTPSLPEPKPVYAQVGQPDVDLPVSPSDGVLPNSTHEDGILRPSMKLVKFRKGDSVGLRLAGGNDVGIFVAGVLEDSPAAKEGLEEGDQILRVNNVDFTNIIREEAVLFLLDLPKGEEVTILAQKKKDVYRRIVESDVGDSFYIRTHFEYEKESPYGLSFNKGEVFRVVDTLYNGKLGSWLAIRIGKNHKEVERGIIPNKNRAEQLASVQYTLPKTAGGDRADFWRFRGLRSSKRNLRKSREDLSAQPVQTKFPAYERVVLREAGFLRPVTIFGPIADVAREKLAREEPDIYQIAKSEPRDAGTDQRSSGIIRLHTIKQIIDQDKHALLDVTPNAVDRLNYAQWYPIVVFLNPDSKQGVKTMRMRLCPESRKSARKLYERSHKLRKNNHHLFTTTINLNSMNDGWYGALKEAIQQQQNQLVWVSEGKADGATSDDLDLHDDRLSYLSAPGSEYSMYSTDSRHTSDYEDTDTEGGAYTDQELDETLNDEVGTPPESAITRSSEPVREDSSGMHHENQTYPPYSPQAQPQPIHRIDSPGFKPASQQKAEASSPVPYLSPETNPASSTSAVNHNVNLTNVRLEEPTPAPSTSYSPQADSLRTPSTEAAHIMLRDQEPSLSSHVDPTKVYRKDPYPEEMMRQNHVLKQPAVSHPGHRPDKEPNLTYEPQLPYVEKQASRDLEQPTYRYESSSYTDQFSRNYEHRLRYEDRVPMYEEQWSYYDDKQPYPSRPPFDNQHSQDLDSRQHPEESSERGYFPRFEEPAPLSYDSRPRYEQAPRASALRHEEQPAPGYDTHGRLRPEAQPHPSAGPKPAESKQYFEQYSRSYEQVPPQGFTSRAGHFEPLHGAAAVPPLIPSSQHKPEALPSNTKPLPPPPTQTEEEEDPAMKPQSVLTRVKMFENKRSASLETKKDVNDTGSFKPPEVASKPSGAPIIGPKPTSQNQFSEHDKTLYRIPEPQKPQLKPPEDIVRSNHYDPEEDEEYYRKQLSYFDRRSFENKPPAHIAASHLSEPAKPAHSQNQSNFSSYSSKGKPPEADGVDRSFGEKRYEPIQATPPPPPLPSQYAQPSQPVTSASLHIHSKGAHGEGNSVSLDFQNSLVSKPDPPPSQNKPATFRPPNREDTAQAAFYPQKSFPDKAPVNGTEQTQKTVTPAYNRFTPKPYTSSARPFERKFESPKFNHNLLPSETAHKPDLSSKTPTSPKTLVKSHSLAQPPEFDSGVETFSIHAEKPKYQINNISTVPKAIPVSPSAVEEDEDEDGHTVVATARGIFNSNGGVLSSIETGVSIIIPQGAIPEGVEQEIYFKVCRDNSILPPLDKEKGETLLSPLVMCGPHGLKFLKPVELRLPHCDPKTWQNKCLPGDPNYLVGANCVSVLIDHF

binding | Substance
binds | cystic fibrosis transmembrane conductance regulator (CFTR) (from UniProt P13569 1-1480)
binds | ZO-1 (from UniProt Q07157 1-1748)

From publication PMC6518688
